Assay results reported in the supplement of paper PMC6411743.
± gives the standard deviation of the averaged measurements. The list shows a part of the results.

Amino acid sequences for entries named in this document (tags omitted). A change or cut given only in a name is not applied to a line headed by its entry.
UniProt Q9BW83: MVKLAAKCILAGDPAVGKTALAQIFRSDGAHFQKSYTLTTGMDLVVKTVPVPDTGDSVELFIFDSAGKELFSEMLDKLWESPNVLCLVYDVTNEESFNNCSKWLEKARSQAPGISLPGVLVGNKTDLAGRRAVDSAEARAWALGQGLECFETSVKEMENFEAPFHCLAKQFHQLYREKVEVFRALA
UniProt Q96SB8: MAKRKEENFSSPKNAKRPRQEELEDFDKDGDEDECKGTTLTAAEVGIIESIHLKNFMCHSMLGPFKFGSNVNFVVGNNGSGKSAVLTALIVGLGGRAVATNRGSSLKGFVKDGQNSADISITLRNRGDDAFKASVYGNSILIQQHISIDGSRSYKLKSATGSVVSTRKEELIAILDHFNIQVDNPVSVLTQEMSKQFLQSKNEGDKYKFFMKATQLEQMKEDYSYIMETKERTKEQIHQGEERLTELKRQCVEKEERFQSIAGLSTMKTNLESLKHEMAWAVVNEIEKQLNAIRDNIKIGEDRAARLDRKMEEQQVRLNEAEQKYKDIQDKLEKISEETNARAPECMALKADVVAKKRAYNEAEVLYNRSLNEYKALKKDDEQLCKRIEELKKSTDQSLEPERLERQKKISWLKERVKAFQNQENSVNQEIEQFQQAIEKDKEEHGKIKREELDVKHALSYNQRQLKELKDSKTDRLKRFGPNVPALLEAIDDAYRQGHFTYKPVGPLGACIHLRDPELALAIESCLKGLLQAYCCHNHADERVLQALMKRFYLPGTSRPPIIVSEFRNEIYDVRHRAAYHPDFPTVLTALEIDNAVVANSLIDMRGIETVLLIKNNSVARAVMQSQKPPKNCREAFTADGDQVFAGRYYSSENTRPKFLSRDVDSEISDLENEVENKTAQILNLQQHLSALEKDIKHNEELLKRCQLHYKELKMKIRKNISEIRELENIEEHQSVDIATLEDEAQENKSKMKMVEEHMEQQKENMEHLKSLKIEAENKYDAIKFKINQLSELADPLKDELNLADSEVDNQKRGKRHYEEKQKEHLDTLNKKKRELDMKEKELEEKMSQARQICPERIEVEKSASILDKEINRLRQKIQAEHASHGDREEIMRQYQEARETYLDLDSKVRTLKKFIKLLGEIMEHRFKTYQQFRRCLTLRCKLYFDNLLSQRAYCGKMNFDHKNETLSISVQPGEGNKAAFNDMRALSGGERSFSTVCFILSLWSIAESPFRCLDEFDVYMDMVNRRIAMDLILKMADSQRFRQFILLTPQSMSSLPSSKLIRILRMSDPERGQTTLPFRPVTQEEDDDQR
UniProt Q9BXK5, whole entry: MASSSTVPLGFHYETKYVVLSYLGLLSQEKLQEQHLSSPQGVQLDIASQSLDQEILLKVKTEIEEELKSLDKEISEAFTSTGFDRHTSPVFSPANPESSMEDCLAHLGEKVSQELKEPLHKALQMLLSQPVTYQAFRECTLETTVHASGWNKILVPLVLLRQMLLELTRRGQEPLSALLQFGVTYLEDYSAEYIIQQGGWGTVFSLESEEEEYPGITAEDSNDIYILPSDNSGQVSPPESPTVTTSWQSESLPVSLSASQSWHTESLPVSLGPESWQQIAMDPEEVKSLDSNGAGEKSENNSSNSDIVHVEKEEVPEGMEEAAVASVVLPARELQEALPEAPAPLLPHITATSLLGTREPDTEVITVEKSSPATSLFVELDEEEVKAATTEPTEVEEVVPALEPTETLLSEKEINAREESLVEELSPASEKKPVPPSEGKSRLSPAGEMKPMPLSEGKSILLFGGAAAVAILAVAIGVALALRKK
UniProt Q99873, whole entry, looked up: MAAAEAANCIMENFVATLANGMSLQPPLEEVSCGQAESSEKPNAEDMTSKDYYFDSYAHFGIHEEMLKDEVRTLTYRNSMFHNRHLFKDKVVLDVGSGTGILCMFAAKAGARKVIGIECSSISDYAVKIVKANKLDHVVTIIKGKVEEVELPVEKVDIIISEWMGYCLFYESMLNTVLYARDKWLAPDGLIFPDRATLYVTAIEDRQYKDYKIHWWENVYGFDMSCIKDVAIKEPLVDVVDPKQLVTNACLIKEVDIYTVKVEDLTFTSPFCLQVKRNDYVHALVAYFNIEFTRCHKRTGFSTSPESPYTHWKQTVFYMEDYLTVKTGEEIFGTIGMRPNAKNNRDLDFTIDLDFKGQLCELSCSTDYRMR
UniProt Q9BTL3: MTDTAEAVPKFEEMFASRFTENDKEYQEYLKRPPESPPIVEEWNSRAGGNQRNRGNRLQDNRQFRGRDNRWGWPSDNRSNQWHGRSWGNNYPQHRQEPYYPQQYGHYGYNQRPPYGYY
UniProt Q99633: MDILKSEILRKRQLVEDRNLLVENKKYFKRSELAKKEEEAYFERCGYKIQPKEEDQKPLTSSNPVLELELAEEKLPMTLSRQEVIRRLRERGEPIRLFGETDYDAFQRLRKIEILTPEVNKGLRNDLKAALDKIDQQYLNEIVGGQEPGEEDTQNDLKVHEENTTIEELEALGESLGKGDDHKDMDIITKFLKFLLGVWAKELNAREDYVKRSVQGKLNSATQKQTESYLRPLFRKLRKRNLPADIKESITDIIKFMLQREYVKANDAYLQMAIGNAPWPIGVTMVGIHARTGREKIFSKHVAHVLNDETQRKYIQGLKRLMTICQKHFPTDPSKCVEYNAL
UniProt Q9BQ95: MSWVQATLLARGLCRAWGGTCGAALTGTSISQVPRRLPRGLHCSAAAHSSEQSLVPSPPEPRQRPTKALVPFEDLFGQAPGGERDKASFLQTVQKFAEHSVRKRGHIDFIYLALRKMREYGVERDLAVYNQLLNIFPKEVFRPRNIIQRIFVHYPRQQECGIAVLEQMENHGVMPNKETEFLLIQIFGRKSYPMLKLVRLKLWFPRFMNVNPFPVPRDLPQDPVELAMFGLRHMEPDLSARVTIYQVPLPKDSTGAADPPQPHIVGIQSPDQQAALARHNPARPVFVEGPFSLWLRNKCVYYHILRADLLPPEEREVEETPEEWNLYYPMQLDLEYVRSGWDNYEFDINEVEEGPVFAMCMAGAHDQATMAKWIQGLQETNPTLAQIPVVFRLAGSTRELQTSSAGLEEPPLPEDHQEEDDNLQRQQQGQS
UniProt Q96PU8: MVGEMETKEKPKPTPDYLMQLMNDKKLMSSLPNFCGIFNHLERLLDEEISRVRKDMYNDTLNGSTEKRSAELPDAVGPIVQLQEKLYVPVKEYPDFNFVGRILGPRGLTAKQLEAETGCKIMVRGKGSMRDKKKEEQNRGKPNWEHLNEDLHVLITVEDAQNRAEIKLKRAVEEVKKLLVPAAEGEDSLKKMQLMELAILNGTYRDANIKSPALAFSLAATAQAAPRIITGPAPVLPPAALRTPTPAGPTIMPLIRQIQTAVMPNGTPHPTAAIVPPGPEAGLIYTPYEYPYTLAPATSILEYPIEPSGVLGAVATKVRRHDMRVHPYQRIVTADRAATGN
UniProt Q9BPW8: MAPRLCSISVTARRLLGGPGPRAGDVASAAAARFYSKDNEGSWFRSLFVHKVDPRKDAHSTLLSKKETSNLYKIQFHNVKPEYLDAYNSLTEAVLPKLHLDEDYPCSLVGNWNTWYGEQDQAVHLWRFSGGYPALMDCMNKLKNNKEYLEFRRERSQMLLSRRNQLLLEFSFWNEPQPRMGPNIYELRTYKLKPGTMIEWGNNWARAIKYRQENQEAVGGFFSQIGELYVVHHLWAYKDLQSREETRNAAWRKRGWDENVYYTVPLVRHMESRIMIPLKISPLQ
UniProt Q9BU02: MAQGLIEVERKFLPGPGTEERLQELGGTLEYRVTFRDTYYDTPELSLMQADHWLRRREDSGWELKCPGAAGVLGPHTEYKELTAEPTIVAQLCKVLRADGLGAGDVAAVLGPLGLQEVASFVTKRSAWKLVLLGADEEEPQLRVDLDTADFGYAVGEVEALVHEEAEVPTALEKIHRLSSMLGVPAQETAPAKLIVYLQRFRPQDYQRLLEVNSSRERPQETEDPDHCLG
UniProt Q99653: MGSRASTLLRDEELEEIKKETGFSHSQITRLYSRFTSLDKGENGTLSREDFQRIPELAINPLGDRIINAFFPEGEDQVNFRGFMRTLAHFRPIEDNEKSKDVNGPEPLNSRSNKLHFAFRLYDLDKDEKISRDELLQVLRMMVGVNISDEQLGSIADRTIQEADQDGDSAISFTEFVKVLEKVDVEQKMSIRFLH
UniProt Q96PZ0: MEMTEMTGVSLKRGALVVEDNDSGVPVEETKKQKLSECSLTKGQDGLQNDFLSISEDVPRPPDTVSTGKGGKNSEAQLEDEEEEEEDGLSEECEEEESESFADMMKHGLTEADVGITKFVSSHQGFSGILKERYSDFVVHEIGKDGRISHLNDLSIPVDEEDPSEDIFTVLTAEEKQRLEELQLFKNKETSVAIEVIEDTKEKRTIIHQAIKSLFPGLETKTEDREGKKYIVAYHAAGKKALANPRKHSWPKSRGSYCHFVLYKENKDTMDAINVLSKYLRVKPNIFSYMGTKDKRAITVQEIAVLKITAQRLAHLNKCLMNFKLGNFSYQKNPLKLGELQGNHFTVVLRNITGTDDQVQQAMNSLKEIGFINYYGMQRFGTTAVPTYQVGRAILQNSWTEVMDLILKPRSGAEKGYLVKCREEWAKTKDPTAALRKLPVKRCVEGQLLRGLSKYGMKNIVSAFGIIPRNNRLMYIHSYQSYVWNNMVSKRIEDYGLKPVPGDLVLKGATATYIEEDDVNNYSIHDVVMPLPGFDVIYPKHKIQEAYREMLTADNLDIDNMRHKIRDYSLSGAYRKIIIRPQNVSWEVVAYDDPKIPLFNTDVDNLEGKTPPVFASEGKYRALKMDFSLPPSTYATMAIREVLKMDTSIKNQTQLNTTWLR
UniProt Q9BWT3: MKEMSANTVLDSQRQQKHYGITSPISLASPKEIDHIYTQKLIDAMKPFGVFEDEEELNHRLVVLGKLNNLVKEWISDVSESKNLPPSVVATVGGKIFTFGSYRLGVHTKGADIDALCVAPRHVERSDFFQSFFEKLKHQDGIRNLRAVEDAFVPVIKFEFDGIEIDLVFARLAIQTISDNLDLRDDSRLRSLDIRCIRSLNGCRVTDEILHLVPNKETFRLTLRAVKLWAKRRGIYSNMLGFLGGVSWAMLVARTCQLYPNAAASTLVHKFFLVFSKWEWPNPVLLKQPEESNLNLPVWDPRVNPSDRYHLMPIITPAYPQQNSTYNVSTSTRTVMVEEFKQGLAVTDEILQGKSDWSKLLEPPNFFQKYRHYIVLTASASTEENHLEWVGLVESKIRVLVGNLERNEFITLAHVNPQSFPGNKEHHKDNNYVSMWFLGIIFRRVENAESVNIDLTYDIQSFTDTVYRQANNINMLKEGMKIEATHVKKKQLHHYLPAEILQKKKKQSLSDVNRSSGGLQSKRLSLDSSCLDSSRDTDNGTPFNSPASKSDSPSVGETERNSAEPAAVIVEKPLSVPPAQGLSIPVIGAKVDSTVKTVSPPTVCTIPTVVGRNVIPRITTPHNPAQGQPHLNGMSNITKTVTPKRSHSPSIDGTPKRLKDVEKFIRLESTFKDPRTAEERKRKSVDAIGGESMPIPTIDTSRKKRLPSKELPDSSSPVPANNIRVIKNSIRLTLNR
UniProt Q96QU8: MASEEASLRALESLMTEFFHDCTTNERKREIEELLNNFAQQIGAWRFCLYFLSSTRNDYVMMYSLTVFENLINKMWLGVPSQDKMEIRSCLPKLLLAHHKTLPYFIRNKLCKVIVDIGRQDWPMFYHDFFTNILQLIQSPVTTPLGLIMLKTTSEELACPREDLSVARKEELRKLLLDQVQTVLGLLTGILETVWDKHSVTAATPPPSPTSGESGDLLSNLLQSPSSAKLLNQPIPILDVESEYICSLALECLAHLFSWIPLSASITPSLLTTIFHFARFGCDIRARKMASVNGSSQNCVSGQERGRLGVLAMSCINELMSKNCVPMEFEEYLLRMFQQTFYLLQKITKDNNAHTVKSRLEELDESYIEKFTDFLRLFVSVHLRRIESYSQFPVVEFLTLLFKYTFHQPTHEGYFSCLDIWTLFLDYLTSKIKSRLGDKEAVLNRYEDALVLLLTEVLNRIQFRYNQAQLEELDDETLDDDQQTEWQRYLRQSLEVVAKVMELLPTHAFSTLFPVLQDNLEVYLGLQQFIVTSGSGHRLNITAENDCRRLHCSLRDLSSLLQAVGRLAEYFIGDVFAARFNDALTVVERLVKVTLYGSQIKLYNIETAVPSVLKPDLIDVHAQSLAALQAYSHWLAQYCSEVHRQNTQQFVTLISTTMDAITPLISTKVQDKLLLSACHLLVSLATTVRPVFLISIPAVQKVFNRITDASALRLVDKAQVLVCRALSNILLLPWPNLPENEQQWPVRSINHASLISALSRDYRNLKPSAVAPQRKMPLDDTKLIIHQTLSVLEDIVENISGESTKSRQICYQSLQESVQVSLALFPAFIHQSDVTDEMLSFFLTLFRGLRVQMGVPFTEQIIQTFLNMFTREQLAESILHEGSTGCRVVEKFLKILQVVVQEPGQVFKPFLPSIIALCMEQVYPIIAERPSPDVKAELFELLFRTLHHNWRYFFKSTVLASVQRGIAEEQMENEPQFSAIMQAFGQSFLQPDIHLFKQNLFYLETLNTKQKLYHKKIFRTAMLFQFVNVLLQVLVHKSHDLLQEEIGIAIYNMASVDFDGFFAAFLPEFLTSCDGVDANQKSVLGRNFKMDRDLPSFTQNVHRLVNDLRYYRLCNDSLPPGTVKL

Compound: Nc1nc2c(ncn2[C@@H]2O[C@H](COP(=O)(O)OP(=O)(O)OP(=O)(O)O)[C@@H](O)[C@H]2O)c(=O)[nH]1 [guanosine triphosphate]
Experiment: NP40-soluble protein abundance relative to vehicle (solubility fold change) (ratio); higher = more soluble protein in presence of GTP
How it was run: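 Jurkat crude lysate prepared with a Dounce homogeniser was treated at eight concentrations spanning 0.1 to 10 mM, 10 min at room temperature then 3 min at 37 °C. Solubilisation with 0.8% NP40 and benzonase and ultracentrifugation preceded TMT labelling of the supernatant for LC-MS/MS. Fold change against the detergent-processed vehicle was determined per replicate from vsn-normalised intensities, across three independent experiments.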

Target	NP40-soluble protein abundance (concentration: 0.1mM)	NP40-soluble protein abundance (concentration: 0.5mM)	NP40-soluble protein abundance (concentration: 1mM)	NP40-soluble protein abundance (concentration: 2mM)	NP40-soluble protein abundance (concentration: 4mM)	NP40-soluble protein abundance (concentration: 6mM)	NP40-soluble protein abundance (concentration: 8mM)	NP40-soluble protein abundance (concentration: 10mM)
UniProt Q9BW83 and related entries	0.972 ± 0.019	1.05 ± 0.059	0.971 ± 0.02	0.958 ± 0.013	0.911 ± 0.036	0.95 ± 0.018	0.916 ± 0.016	0.944 ± 0.0068
UniProt Q96SB8 and related entries	0.992 ± 0.021	1.02 ± 0.035	0.985 ± 0.031	1 ± 0.026	0.998 ± 0.033	1.02 ± 0.021	1.04 ± 0.063	1.04 ± 0.062
BCL2L13 (UniProt Q9BXK5)	0.942 ± 0.12	0.941 ± 0.086	0.951 ± 0.14	0.916 ± 0.15	0.928 ± 0.15	0.899 ± 0.12	0.938 ± 0.13	0.979 ± 0.12
UniProt Q9BUK6 and related entries	1.023 ± 0.0083	0.975 ± 0.025	0.97 ± 0.047	0.957 ± 0.02	0.958 ± 0.059	0.966 ± 0.074	0.969 ± 0.02	0.93 ± 0.068
UniProt Q99873-3|Q99873-4	1.05 ± 0.083	1.1 ± 0.16	0.953 ± 0.11	1 ± 0.18	0.976 ± 0.14	0.986 ± 0.15	0.927 ± 0.052	0.867 ± 0.093
UniProt Q9BTL3	1.03 ± 0.06	1.06 ± 0.036	1.06 ± 0.17	1.05 ± 0.11	0.96 ± 0.11	1.08 ± 0.015	1.18 ± 0.11	1.21 ± 0.091
PRPF18 (UniProt Q99633)	0.947 ± 0.067	0.931 ± 0.081	0.949 ± 0.06	0.987 ± 0.093	0.995 ± 0.087	1.06 ± 0.097	1.02 ± 0.14	1.16 ± 0.044
MCEE (UniProt Q96PE7)	1 ± 0.081	0.962 ± 0.063	0.957 ± 0.08	0.959 ± 0.039	0.939 ± 0.017	0.933 ± 0.082	0.912 ± 0.079	0.919 ± 0.053
ECSIT (UniProt Q9BQ95)	1.05 ± 0.12	1.05 ± 0.094	1.01 ± 0.12	0.953 ± 0.058	1.09 ± 0.081	1.06 ± 0.047	1.03 ± 0.013	1.01 ± 0.048
UniProt Q9BT25 and related entries	0.8741 ± 0.0087	0.89 ± 0.026	1.03 ± 0.087	1.02 ± 0.044	0.953 ± 0.11	0.979 ± 0.048	0.999 ± 0.057	1.05 ± 0.11
UniProt Q96PU8 and related entries	0.968 ± 0.053	0.897 ± 0.05	1.01 ± 0.13	1 ± 0.037	0.985 ± 0.081	0.974 ± 0.058	0.982 ± 0.066	1.05 ± 0.083
LIMD2 (UniProt Q9BT23)	0.881 ± 0.0095	0.895 ± 0.079	1.03 ± 0.047	1.01 ± 0.11	0.925 ± 0.099	1 ± 0.15	0.98 ± 0.097	1.03 ± 0.065
ZNF830 (UniProt Q96NB3)	0.965 ± 0.13	0.983 ± 0.065	1.19 ± 0.18	1.14 ± 0.14	1.12 ± 0.085	1.09 ± 0.1	1.1 ± 0.13	1.19 ± 0.16
NIPSNAP1 (UniProt Q9BPW8)	1.02 ± 0.021	1.06 ± 0.086	0.901 ± 0.038	0.919 ± 0.059	0.887 ± 0.043	0.874 ± 0.044	0.839 ± 0.019	0.818 ± 0.047
UniProt Q9BU02 and related entries	0.959 ± 0.03	0.953 ± 0.061	0.994 ± 0.054	1.02 ± 0.072	0.9806 ± 0.0068	1 ± 0.021	0.983 ± 0.1	0.98 ± 0.051
KIFC1 (UniProt Q9BW19)	0.975 ± 0.051	1.01 ± 0.073	0.996 ± 0.058	0.996 ± 0.072	1.01 ± 0.091	1.05 ± 0.079	1.06 ± 0.048	1.08 ± 0.064
NUP88 (UniProt Q99567)	1.03 ± 0.072	1.05 ± 0.05	0.993 ± 0.082	1.04 ± 0.074	1.03 ± 0.073	1.08 ± 0.081	1.11 ± 0.099	1.13 ± 0.063
UniProt Q96ST2 and related entries	1.06 ± 0.091	0.966 ± 0.044	1.07 ± 0.084	0.97 ± 0.096	1.01 ± 0.11	0.907 ± 0.077	0.993 ± 0.14	0.889 ± 0.091
UniProt Q9BRR6 and related entries	1.15 ± 0.16	0.951 ± 0.052	1.11 ± 0.19	1.04 ± 0.11	1.06 ± 0.04	1.03 ± 0.17	1.05 ± 0.053	1.04 ± 0.033
UniProt Q96Q11 and related entries	0.997 ± 0.014	0.971 ± 0.018	0.929 ± 0.015	0.903 ± 0.025	0.891 ± 0.04	0.877 ± 0.037	0.875 ± 0.043	0.855 ± 0.047
UniProt Q99653	0.94 ± 0.016	0.937 ± 0.036	0.921 ± 0.076	0.945 ± 0.018	0.982 ± 0.023	0.929 ± 0.043	0.9 ± 0.039	0.913 ± 0.016
IFT140 (UniProt Q96RY7)	1.11 ± 0.22	1.17 ± 0.23	1.09 ± 0.14	1.15 ± 0.13	1.14 ± 0.09	1.11 ± 0.026	1.13 ± 0.065	1.14 ± 0.11
PUS7 (UniProt Q96PZ0)	0.992 ± 0.013	0.992 ± 0.016	0.944 ± 0.046	0.944 ± 0.029	0.907 ± 0.053	0.917 ± 0.022	0.889 ± 0.038	0.892 ± 0.059
UniProt Q96RL7 and related entries	1 ± 0.12	1.06 ± 0.037	1.04 ± 0.075	1 ± 0.11	0.977 ± 0.14	1 ± 0.13	1 ± 0.094	0.949 ± 0.052
PAPOLG (UniProt Q9BWT3)	1.055 ± 0.0095	1.05 ± 0.089	1.06 ± 0.021	1.11 ± 0.093	1.17 ± 0.11	1.16 ± 0.11	1.19 ± 0.17	1.16 ± 0.12
UniProt Q96QU8 and related entries	1.07 ± 0.027	1.08 ± 0.075	0.941 ± 0.084	0.956 ± 0.036	0.987 ± 0.052	0.938 ± 0.077	0.921 ± 0.02	0.897 ± 0.07
SPEN (UniProt Q96T58)	1.07 ± 0.044	1.085 ± 0.005	1.12 ± 0.026	1.17 ± 0.08	1.23 ± 0.1	1.22 ± 0.092	1.33 ± 0.2	1.3 ± 0.16
PPP1R9B (UniProt Q96SB3)	1.03 ± 0.17	1.02 ± 0.15	1.11 ± 0.16	1.12 ± 0.15	1.18 ± 0.22	1.24 ± 0.21	1.39 ± 0.21	1.46 ± 0.19
PRRC1 (UniProt Q96M27)	0.946 ± 0.045	0.947 ± 0.046	0.914 ± 0.073	0.898 ± 0.058	0.877 ± 0.084	0.88 ± 0.057	0.865 ± 0.079	0.878 ± 0.053
VPS35 (UniProt Q96QK1)	1.03 ± 0.082	1.04 ± 0.093	0.913 ± 0.048	0.958 ± 0.13	0.929 ± 0.11	0.912 ± 0.086	0.833 ± 0.048	0.868 ± 0.093

A few values from above:
For NP40-soluble protein abundance (concentration: 0.1mM), UniProt Q9BW83 and related entries shows 0.972 ± 0.019
For NP40-soluble protein abundance (concentration: 10mM), IFT140 (UniProt Q96RY7) shows 1.14 ± 0.11
